No constants are given. Whether binding was seen depends on the method and setting. In cells and extracts the contact can be indirect. Some results given as binding are weak or reduced against the parent protein; the word gives no strength. Where a sequence is shown, tags or fusion partners need not be part of it.

Assay [1] deals with T1, CERK1 (endogenous, Col-0 seedlings) (Arabidopsis thaliana (endogenous in Col-0 seedlings)) (UniProt A8R7E6).
T1 sequence: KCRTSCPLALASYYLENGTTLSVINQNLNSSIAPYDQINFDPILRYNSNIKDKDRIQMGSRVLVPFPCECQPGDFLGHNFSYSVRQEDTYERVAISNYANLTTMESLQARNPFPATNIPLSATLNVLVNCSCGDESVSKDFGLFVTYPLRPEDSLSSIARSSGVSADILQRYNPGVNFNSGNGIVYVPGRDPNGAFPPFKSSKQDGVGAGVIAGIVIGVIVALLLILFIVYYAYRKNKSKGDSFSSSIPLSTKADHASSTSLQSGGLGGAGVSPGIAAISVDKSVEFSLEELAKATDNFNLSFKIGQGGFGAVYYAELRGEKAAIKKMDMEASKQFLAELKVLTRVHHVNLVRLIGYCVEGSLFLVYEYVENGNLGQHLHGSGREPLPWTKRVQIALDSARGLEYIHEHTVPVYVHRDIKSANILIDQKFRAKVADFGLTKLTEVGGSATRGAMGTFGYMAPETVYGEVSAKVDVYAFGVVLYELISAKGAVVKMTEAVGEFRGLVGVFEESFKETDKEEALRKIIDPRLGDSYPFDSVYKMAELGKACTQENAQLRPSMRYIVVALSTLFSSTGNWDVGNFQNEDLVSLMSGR
As to the kind of experiment: co-IP; 10-day-old transgenic Col-0 seedlings expressing LIK1-4×Myc; precipitated with anti-CERK1 antibody, detected with anti-Myc; before and at time points after chitooctaose treatment.

Assay [2] deals with T2, Myc-tagged full length AtLIK1 (protoplasts) (Arabidopsis thaliana) (UniProt C0LGN2).
T2 sequence: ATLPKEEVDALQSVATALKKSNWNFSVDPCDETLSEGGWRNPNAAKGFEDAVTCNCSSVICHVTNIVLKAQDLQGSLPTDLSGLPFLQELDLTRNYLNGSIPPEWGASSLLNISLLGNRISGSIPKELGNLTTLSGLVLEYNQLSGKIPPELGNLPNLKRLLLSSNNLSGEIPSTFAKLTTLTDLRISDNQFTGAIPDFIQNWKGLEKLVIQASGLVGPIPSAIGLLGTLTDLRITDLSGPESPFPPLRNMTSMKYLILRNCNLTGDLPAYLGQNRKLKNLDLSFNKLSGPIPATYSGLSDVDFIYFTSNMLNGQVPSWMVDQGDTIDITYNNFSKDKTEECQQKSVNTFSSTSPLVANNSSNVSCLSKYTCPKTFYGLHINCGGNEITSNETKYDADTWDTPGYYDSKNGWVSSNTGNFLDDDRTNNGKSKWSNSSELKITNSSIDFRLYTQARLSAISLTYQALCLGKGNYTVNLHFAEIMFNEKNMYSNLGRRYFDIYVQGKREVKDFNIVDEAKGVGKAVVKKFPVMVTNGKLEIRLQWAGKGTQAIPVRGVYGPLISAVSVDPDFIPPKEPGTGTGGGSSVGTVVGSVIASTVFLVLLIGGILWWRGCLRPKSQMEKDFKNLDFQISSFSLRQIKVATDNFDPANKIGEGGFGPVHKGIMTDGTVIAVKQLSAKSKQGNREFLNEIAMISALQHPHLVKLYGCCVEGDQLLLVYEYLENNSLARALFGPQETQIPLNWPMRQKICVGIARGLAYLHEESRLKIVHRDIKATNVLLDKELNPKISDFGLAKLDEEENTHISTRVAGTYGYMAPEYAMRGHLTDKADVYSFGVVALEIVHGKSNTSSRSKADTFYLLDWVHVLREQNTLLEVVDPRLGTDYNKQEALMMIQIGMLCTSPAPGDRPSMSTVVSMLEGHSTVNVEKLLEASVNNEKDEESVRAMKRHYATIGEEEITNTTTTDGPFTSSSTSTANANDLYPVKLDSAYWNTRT
Kind of assay: co-IP; HA-CERK1 and Myc-LIK1 co-expressed in Arabidopsis Col-0 protoplasts; lysate in 50 mM Tris pH 7.5, 150 mM NaCl, 0.5% Triton X-100; precipitated with anti-Myc, blotted with anti-HA; before and at time points after chitin treatment.

B1: Myc-tagged LIK1 (transgenic plants) (receptor, UniProt C0LGN2 27-1020)
chain: ATLPKEEVDALQSVATALKKSNWNFSVDPCDETLSEGGWRNPNAAKGFEDAVTCNCSSVICHVTNIVLKAQDLQGSLPTDLSGLPFLQELDLTRNYLNGSIPPEWGASSLLNISLLGNRISGSIPKELGNLTTLSGLVLEYNQLSGKIPPELGNLPNLKRLLLSSNNLSGEIPSTFAKLTTLTDLRISDNQFTGAIPDFIQNWKGLEKLVIQASGLVGPIPSAIGLLGTLTDLRITDLSGPESPFPPLRNMTSMKYLILRNCNLTGDLPAYLGQNRKLKNLDLSFNKLSGPIPATYSGLSDVDFIYFTSNMLNGQVPSWMVDQGDTIDITYNNFSKDKTEECQQKSVNTFSSTSPLVANNSSNVSCLSKYTCPKTFYGLHINCGGNEITSNETKYDADTWDTPGYYDSKNGWVSSNTGNFLDDDRTNNGKSKWSNSSELKITNSSIDFRLYTQARLSAISLTYQALCLGKGNYTVNLHFAEIMFNEKNMYSNLGRRYFDIYVQGKREVKDFNIVDEAKGVGKAVVKKFPVMVTNGKLEIRLQWAGKGTQAIPVRGVYGPLISAVSVDPDFIPPKEPGTGTGGGSSVGTVVGSVIASTVFLVLLIGGILWWRGCLRPKSQMEKDFKNLDFQISSFSLRQIKVATDNFDPANKIGEGGFGPVHKGIMTDGTVIAVKQLSAKSKQGNREFLNEIAMISALQHPHLVKLYGCCVEGDQLLLVYEYLENNSLARALFGPQETQIPLNWPMRQKICVGIARGLAYLHEESRLKIVHRDIKATNVLLDKELNPKISDFGLAKLDEEENTHISTRVAGTYGYMAPEYAMRGHLTDKADVYSFGVVALEIVHGKSNTSSRSKADTFYLLDWVHVLREQNTLLEVVDPRLGTDYNKQEALMMIQIGMLCTSPAPGDRPSMSTVVSMLEGHSTVNVEKLLEASVNNEKDEESVRAMKRHYATIGEEEITNTTTTDGPFTSSSTSTANANDLYPVKLDSAYWNTRT
Turning to B1, the binding result in assay [1] is listed as “binds”.

B2: HA-tagged full-length AtCERK1 (receptor, UniProt A8R7E6 24-617)
chain: KCRTSCPLALASYYLENGTTLSVINQNLNSSIAPYDQINFDPILRYNSNIKDKDRIQMGSRVLVPFPCECQPGDFLGHNFSYSVRQEDTYERVAISNYANLTTMESLQARNPFPATNIPLSATLNVLVNCSCGDESVSKDFGLFVTYPLRPEDSLSSIARSSGVSADILQRYNPGVNFNSGNGIVYVPGRDPNGAFPPFKSSKQDGVGAGVIAGIVIGVIVALLLILFIVYYAYRKNKSKGDSFSSSIPLSTKADHASSTSLQSGGLGGAGVSPGIAAISVDKSVEFSLEELAKATDNFNLSFKIGQGGFGAVYYAELRGEKAAIKKMDMEASKQFLAELKVLTRVHHVNLVRLIGYCVEGSLFLVYEYVENGNLGQHLHGSGREPLPWTKRVQIALDSARGLEYIHEHTVPVYVHRDIKSANILIDQKFRAKVADFGLTKLTEVGGSATRGAMGTFGYMAPETVYGEVSAKVDVYAFGVVLYELISAKGAVVKMTEAVGEFRGLVGVFEESFKETDKEEALRKIIDPRLGDSYPFDSVYKMAELGKACTQENAQLRPSMRYIVVALSTLFSSTGNWDVGNFQNEDLVSLMSGR
On to B2, for which, in assay [2], the binding entry was “binds”.

The values above are taken from publication PMC4103824.
